Assay results published in publication PMC4832331.
Results are given in words; binding and its absence hold for the method and conditions named. Some entries that bind do so weakly or less than the wild type.

By UniProt entry, the sequences of proteins in these tests, tags left out. Where a name states a change or a piece, a line headed by the entry shows the natural chain unless it says otherwise. Residues count along the entry.
UniProt P52095, residues 1-710: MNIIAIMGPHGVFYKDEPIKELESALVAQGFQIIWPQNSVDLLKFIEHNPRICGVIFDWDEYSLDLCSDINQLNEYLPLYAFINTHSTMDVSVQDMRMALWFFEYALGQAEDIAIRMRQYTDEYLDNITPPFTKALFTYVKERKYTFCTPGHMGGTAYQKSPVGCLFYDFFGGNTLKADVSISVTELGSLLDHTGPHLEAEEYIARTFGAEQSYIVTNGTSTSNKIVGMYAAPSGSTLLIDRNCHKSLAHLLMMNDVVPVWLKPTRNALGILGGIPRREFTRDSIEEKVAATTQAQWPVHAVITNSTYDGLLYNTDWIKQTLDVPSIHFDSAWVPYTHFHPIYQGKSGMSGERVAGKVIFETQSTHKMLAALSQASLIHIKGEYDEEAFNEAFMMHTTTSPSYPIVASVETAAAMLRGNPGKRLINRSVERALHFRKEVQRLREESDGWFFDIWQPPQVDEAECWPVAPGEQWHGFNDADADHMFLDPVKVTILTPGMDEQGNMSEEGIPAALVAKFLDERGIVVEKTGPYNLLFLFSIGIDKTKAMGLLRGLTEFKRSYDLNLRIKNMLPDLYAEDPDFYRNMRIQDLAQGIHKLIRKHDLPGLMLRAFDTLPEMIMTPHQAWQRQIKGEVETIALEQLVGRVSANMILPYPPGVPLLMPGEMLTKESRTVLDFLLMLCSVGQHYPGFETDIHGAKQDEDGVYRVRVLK
UniProt P0A9H3: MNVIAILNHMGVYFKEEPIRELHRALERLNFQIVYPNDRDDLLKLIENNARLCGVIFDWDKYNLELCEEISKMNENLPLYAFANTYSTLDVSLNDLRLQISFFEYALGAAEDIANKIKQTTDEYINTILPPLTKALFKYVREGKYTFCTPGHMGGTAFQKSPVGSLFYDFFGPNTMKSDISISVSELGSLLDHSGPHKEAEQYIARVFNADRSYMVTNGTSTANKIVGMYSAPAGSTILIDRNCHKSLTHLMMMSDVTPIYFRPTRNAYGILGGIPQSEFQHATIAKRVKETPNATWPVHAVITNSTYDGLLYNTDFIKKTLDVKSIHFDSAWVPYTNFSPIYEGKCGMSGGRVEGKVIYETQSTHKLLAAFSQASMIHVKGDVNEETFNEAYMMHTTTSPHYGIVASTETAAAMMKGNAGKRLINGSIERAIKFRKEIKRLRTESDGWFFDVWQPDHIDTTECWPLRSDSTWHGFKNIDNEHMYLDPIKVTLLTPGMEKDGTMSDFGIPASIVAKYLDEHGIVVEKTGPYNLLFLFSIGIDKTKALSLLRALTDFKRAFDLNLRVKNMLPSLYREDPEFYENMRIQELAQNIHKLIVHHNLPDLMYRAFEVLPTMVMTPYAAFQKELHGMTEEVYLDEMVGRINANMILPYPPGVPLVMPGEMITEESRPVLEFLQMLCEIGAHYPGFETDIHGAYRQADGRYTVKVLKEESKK
UniProt P31473: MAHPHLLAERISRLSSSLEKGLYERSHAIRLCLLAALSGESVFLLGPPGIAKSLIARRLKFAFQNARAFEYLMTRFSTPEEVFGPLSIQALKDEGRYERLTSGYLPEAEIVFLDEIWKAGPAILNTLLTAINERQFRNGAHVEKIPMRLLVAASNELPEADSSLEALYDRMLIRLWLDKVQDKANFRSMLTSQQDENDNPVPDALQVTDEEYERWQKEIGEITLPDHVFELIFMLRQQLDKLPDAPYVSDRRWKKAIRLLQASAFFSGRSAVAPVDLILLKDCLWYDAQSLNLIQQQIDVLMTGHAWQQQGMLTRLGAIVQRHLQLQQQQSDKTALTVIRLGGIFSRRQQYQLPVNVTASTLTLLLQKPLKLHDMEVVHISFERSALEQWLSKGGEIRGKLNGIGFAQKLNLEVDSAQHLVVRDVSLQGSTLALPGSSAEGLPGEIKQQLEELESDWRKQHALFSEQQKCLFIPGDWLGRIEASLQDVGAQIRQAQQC

Columns and labels:
[1] = target: Escherichia coli biosynthetic lysine decarboxylase LdcC (E. coli) (UniProt P52095); assay: negative stain EM; 0.4 mg/ml RavA mixed with 0.3 mg/ml LdcI, LdcC, LdcCI or LdcIC; 2 mM ADP, 10 mM MgCl2, 20 mM Hepes, 150 mM NaCl, pH 7.4; 10 min at room temperature; 2% uranyl acetate; both purified
[2] = target: LdcIC chimera (LdcI with the C-terminal β-sheet of LdcC) (E. coli) (UniProt P0A9H3+P52095); assay: as above
[3] = target: Escherichia coli inducible lysine decarboxylase LdcI (E. coli) (UniProt P0A9H3); assay: cryo-EM structure; LdcI decamer with the LARA domain bound; acidic pH optimal for the enzymatic activity; data set of ref. 23 reprocessed in RELION; both purified

Row | binding [3] | Substance | binding [1] | binding [2]
1 |  | Escherichia coli AAA+ ATPase RavA (from UniProt P31473 1-498) (enzyme) | no binding (tested: 0.4 mg/ml RavA, 0.3 mg/ml LdcC) | no binding (tested: 0.4 mg/ml RavA, 0.3 mg/ml LdcIC)
2 | binds | LARA domain of RavA (LdcI associating domain of RavA) (from UniProt P31473 332-437) (domain or fragment) |  | 
